# From the supplement of paper PMC8616043
# “And” between values parts separate entries of the source, which are not always exact repeats. Equal values may be shown once. Where a name gives a salt, the structure may show the parent alone. The list shows a part of the results. Single values are uncertain here, since repeats match poorly.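 Human U-2 OS cells stably expressing a GFP sensor with a nuclear import signal and classical export signal were transfected to produce PR50, a 50-repeat proline–arginine dipeptide from ALS/FTD gene C9ORF72. Nuclear-minus-cytoplasm GFP was scaled from DMSO (low) to PR-only (high), scored against plate test wells; strongly negative scores marked PR-reversing hits.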
# Tested on: U-2 OS NCT-C biosensor cells expressing PR50
# Experiment: Z-score of normalised NCT-C biosensor translocation index in PR50-expressing cells; higher = more nuclear biosensor (more disrupted nuclear export)
# Conditions: 3 µM; 24 h
row,Structure (SMILES),Z-score
1,Cc1cn([C@H]2C[C@H](N=[N+]=[N-])[C@@H](CO)O2)c(=O)[nH]c1=O [Zidovudine (3'-Azido-3'-Deoxythymidine)],inactive: -0.438
2,Cc1cn([C@H]2C[C@H](N=[N+]=[N-])[C@@H](CO)O2)c(=O)[nH]c1=O [3'-Azido-3'- deoxythymidine],inactive: 0.148
3,C=CCc1ccc(O)c(-c2cc(CC=C)ccc2O)c1 [Magnolol],inactive: -0.622
4,NS(=O)(=O)Cc1noc2ccccc12 [Zonisamide],inactive: 0.548
5,NS(=O)(=O)Cc1noc2ccccc12 [Zonisamide sodium salt],inactive: 0.172
6,CC(C[N+](C)(C)C)OC(N)=O (stereo not given) [Bethanechol Chloride],inactive: -0.585
7,CC(C[N+](C)(C)C)OC(N)=O (stereo not given) [Bethanechol chloride],inactive: -0.431
8,N[C@@H](Cc1c[nH]cn1)C(=O)O [L-Histidine hydrochloride],inactive: 0.0919
9,NCCC(O)(P(=O)(O)O)P(=O)(O)O [Pamidronate Disodium  Pentahydrate (Pamidronic Acid)],inactive: -0.238
10,O=c1cc(-c2ccc(O)cc2)oc2cc(O[C@@H]3O[C@H](CO)[C@@H](O)[C@H](O)[C@H]3O)cc(O)c12 [Apigenin-7-glucoside],inactive: 0.104
11,CCCNC(C)C(=O)Nc1c(C)csc1C(=O)OC (stereo not given) [Articaine·HCl],inactive: -0.445
12,C[C@@H]1O[C@@H](OC[C@H]2O[C@@H](Oc3cc(O)c4c(c3)O[C@H](c3ccc(O)c(O)c3)CC4=O)[C@H](O)[C@@H](O)[C@@H]2O)[C@H](O)[C@H](O)[C@H]1O [Eriocitrin],inactive: 0.499
13,CC1(C)CC=C(c2cnc3ccccc3c2)c2cc(C(=O)Nc3ccc(C(=O)O)cc3)ccc21,inactive: 0.267
14,C[C@]12CCC(=O)C=C1C=C[C@@H]1[C@@H]2CC[C@@]2(C)[C@H]1CC[C@@]21CCC(=O)O1 [Canrenone],inactive: -0.203
15,COc1ccc2c(c1)c(CC(=O)O)c(C)n2Cc1ccc(Cl)cc1 [1-(4-Chlorobenzyl)-5- methoxy-2- methylindole-3- acetic acid],inactive: 4.25
16,"COC(=O)[C@@H](N)Cc1ccc(O)c(O)c1 [L-3,4-Dihydroxy phenylalanine methyl ester hydrochloride]",inactive: -0.135
17,CC(N)(Cc1ccc(O)cc1)C(=O)O (racemic) [DL-alpha-Methyl-p tyrosine],inactive: 0.891
18,COC(=O)CCc1ccc(OCC(O)CNC(C)C)cc1 (stereo not given) [Esmolol],inactive: 0.688
19,COCCOC(=O)C1=C(C)NC(C)=C(C(=O)OC(C)C)C1c1cccc([N+](=O)[O-])c1 (stereo not given) [Nimodipine],inactive: -0.461
20,NCCS [Cysteamine hydrochloride],inactive: -0.973
21,NCCS [Cysteamine·HCl],inactive: 0.00235
22,CN1C(C(=O)Nc2ccccn2)=C(O)c2ccccc2S1(=O)=O [Piroxicam],inactive: 0.597
23,COc1c(C)c2c(c(O)c1C/C=C(\C)CCC(=O)OCCN1CCOCC1)C(=O)OC2 [Mycophenolate Mofetil],inactive: -0.436
24,O=C(O)c1ccc(-n2nc(-c3ccccc3O)nc2-c2ccccc2O)cc1 [Deferasirox],inactive: -0.0284

# Rewritten with bars between the fields: entries from further up.
row | Structure (SMILES) | Z-score
12 | C[C@@H]1O[C@@H](OC[C@H]2O[C@@H](Oc3cc(O)c4c(c3)O[C@H](c3ccc(O)c(O)c3)CC4=O)[C@H](O)[C@@H](O)[C@@H]2O)[C@H](O)[C@H](O)[C@H]1O [Eriocitrin] | inactive: 0.499
13 | CC1(C)CC=C(c2cnc3ccccc3c2)c2cc(C(=O)Nc3ccc(C(=O)O)cc3)ccc21 | inactive: 0.267
15 | COc1ccc2c(c1)c(CC(=O)O)c(C)n2Cc1ccc(Cl)cc1 [1-(4-Chlorobenzyl)-5- methoxy-2- methylindole-3- acetic acid] | inactive: 4.25

# The listing continues:

row,Structure (SMILES),Z-score
1,COc1c2ccoc2cc2oc(C)cc(=O)c12 [Visnagin],inactive: -0.351
2,NCC(=O)CCC(=O)O [Aminolevulinic Acid·HCl],inactive: -0.0667
3,O=C(O)C[C@H](O)C[C@H](O)/C=C/c1c(C2CC2)nc2ccccc2c1-c1ccc(F)cc1 [Pitavastatin Calcium],inactive: 0.147
4,Cc1ccc(C)c(OCCCC(C)(C)C(=O)O)c1 [Gemfibrozil],inactive: 0.697
5,O=c1[nH]c2cc(Cl)ccc2c(O)c1-c1cccc(Oc2ccccc2)c1,inactive: 0.324
6,NCCCCN [Putrescine dihydrochloride],inactive: -0.911
7,CN(Cc1ccc(C(C)(C)C)cc1)Cc1cccc2ccccc12 [Butenafine·HCl],inactive: 0.232
8,CCCCCCCCCCCC(=O)c1c(O)c(C(=O)CCCCCCCCCCC)c(O)c(C2CC(c3ccc(O)cc3)Oc3cc(O)ccc32)c1O (stereo not given),inactive: 0.197
9,Cc1cccc(-c2[nH]ncc2-c2ccc3ncccc3n2)n1,inactive: -0.299
10,C=C[C@@](C)(/C=C/c1ccc(O)cc1)CCC=C(C)C [Bakuchiol],inactive: -0.0644
11,S=c1[nH]cnc2nc[nH]c12 [Mercaptopurine Hydrate],inactive: 0.608
12,Cc1nnc(SCC2=C(C(=O)O)N3C(=O)[C@@H](NC(=O)Cn4cnnn4)[C@H]3SC2)s1 [Cefazolin sodium salt],inactive: -0.202
13,Nc1nc2c(ncn2[C@@H]2O[C@H](CO)[C@@H](O)[C@@H]2O)c(=O)[nH]1 [Ara-G hydrate],inactive: -0.274
14,COc1ccc2c3c1O[C@H]1C[C@@H](O)C=C[C@@]31CCN(C)C2 [Galantamine·HBr],inactive: 0.0843
15,CCCCC1(C2CCCC2)Cc2cc(OCC(=O)O)c(Cl)c(Cl)c2C1=O (stereo in doubt) [R(+)-Butylindazone],inactive: -0.652
16,CC1(C)S[C@@H]2[C@H](NC(=O)COc3ccccc3)C(=O)N2[C@H]1C(=O)O [Penicillin V Potassium],inactive: -0.405
17,O=C1OC(=O)[C@H]2[C@@H]1[C@@H]1CC[C@H]2O1 [Norcantharidin],inactive: -0.218
18,CC(C)Cn1cnc2c(N)nc3ccccc3c21 [Imiquimod],inactive: 0.18
19,Cc1nc2ccc(NC(=O)Nc3ccnc4cccnc34)cc2o1,inactive: -0.306
20,NC(=O)N1c2ccccc2CC(=O)c2ccccc21 [Oxcarbazepine],inactive: 0.419
21,NC1=NCC2c3ccccc3Cc3ccccc3N12 (stereo not given) [Epinastine·HCl],inactive: 0.364
22,NC1=NCC2c3ccccc3Cc3ccccc3N12 (stereo not given) [Epinastine hydrochloride],inactive: -0.0277
23,Cc1cccc(Nc2ccncc2S(=O)(=O)NC(=O)NC(C)C)c1 [Torsemide],inactive: -0.112
24,CSc1c(C)c(SC)n2ccncc12 [Oltipraz metabolite M2],inactive: -1.41

row,Structure (SMILES),Z-score
1,COc1cc2ccc(=O)oc2cc1O [Scopoletin],inactive: -0.19
2,CC1(C)O[C@@H]2[C@@H](CO[C@@]3(COS(N)(=O)=O)OC(C)(C)O[C@@H]23)O1 [Topiramate],inactive: -0.174
3,CN(C)c1cc(NC(=O)CNC(C)(C)C)c(O)c2c1C[C@H]1C[C@H]3[C@H](N(C)C)C(O)=C(C(N)=O)C(=O)[C@@]3(O)C(O)=C1C2=O [Tigecycline],inactive: 0.126
4,CCOC(=O)[C@@H](N)Cc1ccc(O)c(O)c1 [L-Dopa ethyl ester],inactive: -0.151
5,O=C1Nc2ccc(I)cc2/C1=C/c1cc(Br)c(O)c(Br)c1,inactive: -0.0435
6,O=C1N=C(O)NC1(c1ccccc1)c1ccccc1 [Phenytoin sodium],inactive: -0.288
7,COc1ccc2cc3[n+](cc2c1OC)CCc1cc2c(cc1-3)OCO2 [Berberine·HCl],inactive: -0.681
8,Cc1c2oc3c(C)ccc(C(=O)N[C@@H]4C(=O)N[C@H](C(C)C)C(=O)N5CCC[C@H]5C(=O)N(C)CC(=O)N(C)[C@@H](C(C)C)C(=O)O[C@@H]4C)c3nc-2c(C(=O)N[C@@H]2C(=O)N[C@H](C(C)C)C(=O)N3CCC[C@H]3C(=O)N(C)CC(=O)N(C)[C@@H](C(C)C)C(=O)O[C@@H]2C)c(N)c1=O [Dactinomycin (= Actinomycin D)],inactive: -1.49
9,Cc1nccn1CC1CCc2c(c3ccccc3n2C)C1=O (stereo not given) [Ondansetron],inactive: 0.332
10,CC(=O)NC[C@H]1CN(c2ccc(N3CCOCC3)c(F)c2)C(=O)O1 [Linezolid],inactive: 3.58
11,O=c1c2ccccc2[nH]c(=S)n1CCN1CCC(=C(c2ccc(F)cc2)c2ccc(F)cc2)CC1 [Diacylglycerol Kinase Inhibitor II],inactive: -0.223
12,Cc1cccn2c(=O)c(-c3nnn[nH]3)cnc12 [Pemirolast Potassium],inactive: -0.788
13,CCCc1c(OCCCOc2ccc(OCC(=O)O)cc2)ccc(C(C)=O)c1O,inactive: -0.0165
14,CC1=C(C(=O)O)N2C(=O)[C@@H](NC(=O)[C@H](N)c3ccccc3)[C@H]2SC1 [Cephalexin hydrate],inactive: -0.462
15,CC1=C(C(=O)O)N2C(=O)[C@@H](NC(=O)[C@H](N)c3ccccc3)[C@H]2SC1 [Cephalexin Monohydrate],inactive: -0.185
16,CN1CC(=O)N=C1NC(=O)Nc1cccc(Cl)c1 [Fenobam],inactive: -0.106
17,CC(C)(C)OC(=O)Nc1ccc(-c2cc(C(=O)NCCCCCCC(=O)NO)no2)cc1,inactive: -0.185 and inactive: 6.25
18,CC(C)(C)NCC(O)COc1cccc2c1CC(O)C(O)C2 (stereo not given) [Nadolol],inactive: -0.351
19,Cc1ccc(S(=O)(=O)/C=C/C#N)cc1,inactive: 0.165
20,COc1cc(-c2cc(-c3ccc(N4CCNCC4)cc3)cnc2C)cc(OC)c1OC,inactive: -0.682
21,O=C(O)c1ccc(O)c2ncccc12,inactive: -1.26
22,Oc1ccccc1-c1cc(-c2ccccc2F)[nH]n1,inactive: 0.365
